We go through one substance from publication PMC4387661.

Chains of the proteins cited; added tags and fusions are not shown.
UniProt O54918: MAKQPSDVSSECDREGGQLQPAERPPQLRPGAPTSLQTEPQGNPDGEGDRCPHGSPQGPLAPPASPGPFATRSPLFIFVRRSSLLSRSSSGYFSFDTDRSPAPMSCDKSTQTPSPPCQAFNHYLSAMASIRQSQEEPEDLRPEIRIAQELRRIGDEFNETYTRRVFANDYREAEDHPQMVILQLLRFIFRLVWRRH

No constants are given. Whether binding was seen depends on the method and setting. In cells and extracts the contact can be indirect.

The target in this experiment is T1, activating transcription factor 2 (ATF2) (mouse (endogenous in B16F10)) (UniProt P16951).
T1 sequence: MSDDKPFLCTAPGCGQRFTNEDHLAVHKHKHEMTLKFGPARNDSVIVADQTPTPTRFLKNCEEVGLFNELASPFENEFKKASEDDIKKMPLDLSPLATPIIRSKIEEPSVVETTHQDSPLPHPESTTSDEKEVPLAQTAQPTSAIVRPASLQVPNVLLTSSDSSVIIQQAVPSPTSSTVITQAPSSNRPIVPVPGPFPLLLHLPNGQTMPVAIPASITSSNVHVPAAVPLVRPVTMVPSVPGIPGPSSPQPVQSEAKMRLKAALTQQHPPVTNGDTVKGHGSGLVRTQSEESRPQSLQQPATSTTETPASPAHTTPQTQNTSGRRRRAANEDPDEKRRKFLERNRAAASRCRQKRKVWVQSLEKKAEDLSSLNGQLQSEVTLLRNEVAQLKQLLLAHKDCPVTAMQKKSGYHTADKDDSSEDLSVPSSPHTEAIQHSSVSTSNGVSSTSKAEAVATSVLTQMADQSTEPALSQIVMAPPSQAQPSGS
In words: co-IP; immunoprecipitation from B16F10 cell lysates prior to and after PTX treatment; which protein was precipitated is not told.

On to Bim (from UniProt O54918 1-196), for which the binding result is on record as “no binding”.
